Reference: PMC12204343
These are yes or no findings as the source states them, for the method shown. Some entries that bind do so weakly or less than the wild type.

How the values were obtained:
Alcohol dehydrogenase = target: T1, Alcohol dehydrogenase (UniProt P00330); assay: SEC-MALS; chaperone (100 μg) with ADH (75 μg) in 0.25 mL PBS, 50 mM EDTA, 37°C, 60 min; supernatant on TSK G5000PWXL with MALS; compared with samples without incubation (0 min); both purified
T1 sequence: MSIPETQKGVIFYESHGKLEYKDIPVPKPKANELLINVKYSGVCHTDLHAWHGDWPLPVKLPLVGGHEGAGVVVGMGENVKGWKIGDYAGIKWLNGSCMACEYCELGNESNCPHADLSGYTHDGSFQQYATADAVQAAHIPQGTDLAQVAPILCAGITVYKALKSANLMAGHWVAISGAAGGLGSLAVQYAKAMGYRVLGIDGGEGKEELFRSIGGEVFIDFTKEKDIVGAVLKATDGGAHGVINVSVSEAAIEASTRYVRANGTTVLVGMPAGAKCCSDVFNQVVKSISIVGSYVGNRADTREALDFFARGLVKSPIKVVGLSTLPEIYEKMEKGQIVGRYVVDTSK

Lysozyme [1] = target: Lysozyme (UniProt P00698); assay: co-sedimentation; after the 6-hour lysozyme (10 μM) aggregation assay in PBS, 2 mM DTT, 37°C; 6,000 rpm 20 min; supernatant and pellet on SDS-PAGE; both purified
Lysozyme [2] = target: Lysozyme (UniProt P00698); assay: dynamic light scattering; 10 μM lysozyme with 10 μM chaperone (1:1) in 1 ml PBS, 2 mM DTT, 37°C; effective radius and mass at 0 and 6 hr (Nanobrook Omni); both purified

Measured: binding

B1: αB-crystallin with residues 54–61 deleted (protein, UniProt P02511)
chain: MDIAIHHPWIRRPFFPFHSPSRLFDQFFGEHLLESDLFPTSTSLSPFYLRPPSDTGLSEMRLEKDRFSVNLDVKHFSPEELKVKVLGDVIEVHGKHEERQDEHGFISREFHRKYRIPADVDPLTITSSLSSDGVLTVNGPRKQVSGPERTIPITREEKPAVTAAPKK
binds: all assays above

B2: wild-type αB-crystallin (protein, UniProt P02511 1-175)
chain: MDIAIHHPWIRRPFFPFHSPSRLFDQFFGEHLLESDLFPTSTSLSPFYLRPPSFLRAPSWFDTGLSEMRLEKDRFSVNLDVKHFSPEELKVKVLGDVIEVHGKHEERQDEHGFISREFHRKYRIPADVDPLTITSSLSSDGVLTVNGPRKQVSGPERTIPITREEKPAVTAAPKK
binds: all assays above

B3: αB-crystallin S59D (phosphomimetic mutant) (protein, UniProt P02511 1-175)
chain: MDIAIHHPWIRRPFFPFHSPSRLFDQFFGEHLLESDLFPTSTSLSPFYLRPPSFLRAPDWFDTGLSEMRLEKDRFSVNLDVKHFSPEELKVKVLGDVIEVHGKHEERQDEHGFISREFHRKYRIPADVDPLTITSSLSSDGVLTVNGPRKQVSGPERTIPITREEKPAVTAAPKK
binds: all assays above

B4: αB-crystallin S59A (protein, UniProt P02511 1-175)
chain: MDIAIHHPWIRRPFFPFHSPSRLFDQFFGEHLLESDLFPTSTSLSPFYLRPPSFLRAPAWFDTGLSEMRLEKDRFSVNLDVKHFSPEELKVKVLGDVIEVHGKHEERQDEHGFISREFHRKYRIPADVDPLTITSSLSSDGVLTVNGPRKQVSGPERTIPITREEKPAVTAAPKK
binds: all assays above

B5: αB-crystallin ΔS59 (deletion of Serine 59) (protein, UniProt P02511 1-175)
chain: MDIAIHHPWIRRPFFPFHSPSRLFDQFFGEHLLESDLFPTSTSLSPFYLRPPSFLRAPWFDTGLSEMRLEKDRFSVNLDVKHFSPEELKVKVLGDVIEVHGKHEERQDEHGFISREFHRKYRIPADVDPLTITSSLSSDGVLTVNGPRKQVSGPERTIPITREEKPAVTAAPKK
binds: all assays above
